Publication doi:10.1101/2023.07.05.547753
Results are given in words; binding and its absence hold for the method and conditions named. Binding seen in cells or lysates may run through a third protein. Some entries that bind do so weakly or less than the wild type. Where a sequence is shown, tags or fusion partners need not be part of it.

The chains behind the UniProt entries cited, without tags or fusion partners.
UniProt O22130: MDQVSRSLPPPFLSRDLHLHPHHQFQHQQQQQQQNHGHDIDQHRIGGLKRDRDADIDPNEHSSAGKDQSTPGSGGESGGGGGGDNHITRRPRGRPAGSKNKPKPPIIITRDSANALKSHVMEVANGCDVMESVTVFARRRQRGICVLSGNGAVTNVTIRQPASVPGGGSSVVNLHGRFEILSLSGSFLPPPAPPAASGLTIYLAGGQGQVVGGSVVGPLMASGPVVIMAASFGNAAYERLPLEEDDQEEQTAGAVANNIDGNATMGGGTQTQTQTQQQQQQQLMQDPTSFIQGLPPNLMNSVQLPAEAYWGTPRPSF

Legend:
[1] = biological target: T1, HDA15 fused to eGFP or mRFP (FRET-FLIM fusion) (Arabidopsis thaliana) (UniProt Q8GXJ1); experiment: FRET or BRET
T1 sequence: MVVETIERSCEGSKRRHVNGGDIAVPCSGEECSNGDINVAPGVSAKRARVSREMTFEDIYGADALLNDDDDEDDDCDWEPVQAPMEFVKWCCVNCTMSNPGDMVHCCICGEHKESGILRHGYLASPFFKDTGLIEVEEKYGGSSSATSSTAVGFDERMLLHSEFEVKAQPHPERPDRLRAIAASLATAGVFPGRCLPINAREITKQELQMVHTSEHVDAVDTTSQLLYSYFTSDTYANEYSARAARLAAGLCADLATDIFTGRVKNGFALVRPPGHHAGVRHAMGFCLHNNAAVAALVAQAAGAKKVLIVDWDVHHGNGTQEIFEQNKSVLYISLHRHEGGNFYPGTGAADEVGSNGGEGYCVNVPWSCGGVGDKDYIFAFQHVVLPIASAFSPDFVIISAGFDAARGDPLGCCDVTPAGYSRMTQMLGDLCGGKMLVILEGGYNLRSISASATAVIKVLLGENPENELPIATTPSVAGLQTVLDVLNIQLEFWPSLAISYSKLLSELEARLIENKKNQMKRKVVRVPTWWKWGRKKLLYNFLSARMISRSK

[2] = biological target: T2, FRS12 fused to eGFP or mRFP (FRET-FLIM fusion) (Arabidopsis thaliana) (UniProt Q3E7I5); experiment: FRET or BRET
T2 sequence: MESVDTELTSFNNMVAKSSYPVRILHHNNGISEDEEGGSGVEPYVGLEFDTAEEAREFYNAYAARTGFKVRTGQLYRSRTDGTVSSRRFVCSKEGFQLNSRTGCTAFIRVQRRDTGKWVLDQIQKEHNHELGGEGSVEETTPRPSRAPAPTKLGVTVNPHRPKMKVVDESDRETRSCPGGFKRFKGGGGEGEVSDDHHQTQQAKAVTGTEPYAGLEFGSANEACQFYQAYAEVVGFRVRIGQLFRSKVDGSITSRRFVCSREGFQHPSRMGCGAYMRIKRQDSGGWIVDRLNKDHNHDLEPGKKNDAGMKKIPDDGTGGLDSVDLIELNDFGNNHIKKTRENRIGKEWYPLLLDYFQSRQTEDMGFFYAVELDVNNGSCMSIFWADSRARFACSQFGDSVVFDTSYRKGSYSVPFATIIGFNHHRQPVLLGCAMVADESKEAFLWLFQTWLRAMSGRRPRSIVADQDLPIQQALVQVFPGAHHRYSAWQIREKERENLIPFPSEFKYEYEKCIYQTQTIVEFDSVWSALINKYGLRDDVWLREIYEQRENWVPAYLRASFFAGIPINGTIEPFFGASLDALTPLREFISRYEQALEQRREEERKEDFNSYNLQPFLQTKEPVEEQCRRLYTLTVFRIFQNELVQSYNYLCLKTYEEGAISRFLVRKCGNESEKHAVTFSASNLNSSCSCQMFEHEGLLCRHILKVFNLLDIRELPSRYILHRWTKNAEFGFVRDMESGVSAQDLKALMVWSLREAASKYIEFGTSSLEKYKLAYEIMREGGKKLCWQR

[3] = biological target: T3, FRS7 fused to eGFP or mRFP (FRET-FLIM fusion) (Arabidopsis thaliana) (UniProt Q9M8J3); experiment: FRET or BRET
T3 sequence: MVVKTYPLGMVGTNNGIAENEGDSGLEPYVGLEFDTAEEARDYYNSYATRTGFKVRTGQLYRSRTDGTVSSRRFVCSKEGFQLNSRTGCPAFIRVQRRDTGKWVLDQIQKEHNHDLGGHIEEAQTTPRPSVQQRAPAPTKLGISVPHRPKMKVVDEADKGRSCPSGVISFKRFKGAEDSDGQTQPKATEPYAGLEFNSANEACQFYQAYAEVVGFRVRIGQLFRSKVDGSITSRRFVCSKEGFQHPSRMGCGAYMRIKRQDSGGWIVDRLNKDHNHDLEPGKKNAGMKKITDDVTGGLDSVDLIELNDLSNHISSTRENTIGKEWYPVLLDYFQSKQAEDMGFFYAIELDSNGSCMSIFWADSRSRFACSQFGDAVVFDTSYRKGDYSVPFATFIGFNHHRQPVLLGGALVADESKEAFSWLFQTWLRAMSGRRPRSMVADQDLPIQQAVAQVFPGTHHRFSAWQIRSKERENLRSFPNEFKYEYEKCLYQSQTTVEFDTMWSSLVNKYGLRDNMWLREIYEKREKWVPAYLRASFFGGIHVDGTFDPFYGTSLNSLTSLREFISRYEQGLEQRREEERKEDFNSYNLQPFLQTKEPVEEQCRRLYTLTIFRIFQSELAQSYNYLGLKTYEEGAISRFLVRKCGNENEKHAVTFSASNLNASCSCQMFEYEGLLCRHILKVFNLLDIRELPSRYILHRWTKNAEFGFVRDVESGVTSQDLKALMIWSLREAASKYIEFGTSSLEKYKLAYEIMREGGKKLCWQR

[4] = biological target: T4, FRS12 fused with pSITE-cEYFP-C1 (BiFC fusion) (Arabidopsis thaliana) (UniProt Q3E7I5); experiment: split reporter
T4 sequence: T2 sequence

[5] = biological target: T5, FRS7 fused with pSITE-cEYFP-C1 (BiFC fusion) (Arabidopsis thaliana) (UniProt Q9M8J3); experiment: split reporter
T5 sequence: T3 sequence

[6] = biological target: T6, FRS7-GFP (Arabidopsis thaliana) (UniProt Q9M8J3); experiment: co-IP
T6 sequence: T3 sequence

[7] = biological target: T7, FRS12-GFP (Arabidopsis thaliana) (UniProt Q3E7I5); experiment: co-IP
T7 sequence: T2 sequence

AHL22 fused to eGFP or mRFP (FRET-FLIM fusion) (from UniProt O22130 1-317)
binding [1]: binds
binding [2]: binds
binding [3]: binds

AHL22 fused with pSITE-nEYFP-N1 (BiFC fusion) (from UniProt O22130 1-317)
binding [4]: binds
binding [5]: binds

AHL22-3FLAG (from UniProt O22130 1-317)
binding [6]: binds
binding [7]: binds
